# Measured data: PubChem BioAssay AID1259405 (NCATS, 2018)
# Test: 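Mouse-designed siRNAs used to find CHO productivity engineering targets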 (primary screen)
# System: Chinese hamster CHO-K1 ovary cells with stable secreted eGFP expression
# Reagent: single siRNA against mouse genes, 0.8 pmol siRNA per well (2 µl of 400 nM stock)
# Timing: 3 days
# Read-out: 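Percent of the per-plate non-targeting control median for intracellular GFP per well by laser scanning cytometry and for cell viability by ATP luminescence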
# Scale: GFP, % of control: higher = more GFP per well, higher productivity; viability (ATP), % of control: higher = more viable cells (more ATP)
# Active means: 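a knock-down is called active if GFP reaches 120% or more of non-targeting control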
# In all, the deposit lists about 50,000 reagents; this is an unselected part. About 4,000 of all reagents (8%) were called active. 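Mouse siRNA library applied to hamster cells; one well for each siRNA.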 A number with no mark means an inactive call. Reagents against one gene are numbered here. Reagent sequences are not shown.
Gene,reagent no.,"GFP, % of control","viability (ATP), % of control"
Or4c15,1,26,46.8
Or4c15,2,57.4,66.8
Or4c15,3,61.1,77.8
Slc26a11,1,79.1,56.7
Slc26a11,2,78.1,85.7
Slc26a11,3,113,99.3
Syp,1,98.7,78.8
Syp,2,84.1,76.4
Vmn1r203,1,37.9,56.9
Vmn1r203,2,61.5,96.6
Vmn1r203,3,70.1,47.1
Col4a2,1,81.3,75.4
Col4a2,2,105,81.9
Col4a2,3,89.2,63.2
Rbpj,1,127 (active),113
Rbpj,2,118,110
Cacnb4,1,86.7,80
Cacnb4,2,56,59
Cacnb4,3,59.3,70.1
Tmem51,1,96.3,72.7
Tmem51,2,77.4,69.9
Tmem51,3,107,110
Nrf1,1,14.7,59.6
Nrf1,2,70.4,82.2
Nrf1,3,68.9,101
Eqtn,1,65.2,84.7
Eqtn,2,115,65.8
Eqtn,3,119,123
Foxf2,1,88,86.7
Foxf2,2,126 (active),111
AI837181,1,71.7,76.6
AI837181,2,124 (active),124
AI837181,3,95.6,94.6
Mtmr4,1,81.7,86.5
Mtmr4,2,82.5,60.1
Mtmr4,3,87.8,80.5
Vmn1r181,1,58.7,42.8
Vmn1r181,2,73.2,55.1
Vmn1r181,3,93.4,72.2
Tekt1,1,45.4,41.5
Tekt1,2,66.6,83.9
Dnajc24,1,66.4,73.2
Dnajc24,2,108,85.8
Dnajc24,3,87.7,104
Hacd1,1,119,64.4
Hacd1,2,81,60.3
Rab2b,1,78.9,123
Rab2b,2,151 (active),117
Rab2b,3,63,111
Fabp6,1,92.2,95.4
Fabp6,2,67.5,65
Fabp6,3,63,65.1
Lgals4,1,77.5,61.6
Lgals4,2,66.8,64.2
Lgals4,3,59.7,56.8
Defa1,1,84.3,100
Defa1,2,83.4,82.5
Defa1,3,136 (active),50.9

Hits (from the list above):
Gene,reagent no.,"GFP, % of control","viability (ATP), % of control"
Rbpj,1,127 (active),113
Foxf2,2,126 (active),111
AI837181,2,124 (active),124
Rab2b,2,151 (active),117
Defa1,3,136 (active),50.9
